Measured values reported in paper PMC5326618.
No constants are given. Whether binding was seen depends on the method and setting. Binding seen in cells or lysates may run through a third protein. Some results given as binding are weak or reduced against the parent protein; the word gives no strength. Sequences can lack the tags named with a protein.

By UniProt entry, the sequences of proteins in these tests, tags left out.
UniProt Q13547: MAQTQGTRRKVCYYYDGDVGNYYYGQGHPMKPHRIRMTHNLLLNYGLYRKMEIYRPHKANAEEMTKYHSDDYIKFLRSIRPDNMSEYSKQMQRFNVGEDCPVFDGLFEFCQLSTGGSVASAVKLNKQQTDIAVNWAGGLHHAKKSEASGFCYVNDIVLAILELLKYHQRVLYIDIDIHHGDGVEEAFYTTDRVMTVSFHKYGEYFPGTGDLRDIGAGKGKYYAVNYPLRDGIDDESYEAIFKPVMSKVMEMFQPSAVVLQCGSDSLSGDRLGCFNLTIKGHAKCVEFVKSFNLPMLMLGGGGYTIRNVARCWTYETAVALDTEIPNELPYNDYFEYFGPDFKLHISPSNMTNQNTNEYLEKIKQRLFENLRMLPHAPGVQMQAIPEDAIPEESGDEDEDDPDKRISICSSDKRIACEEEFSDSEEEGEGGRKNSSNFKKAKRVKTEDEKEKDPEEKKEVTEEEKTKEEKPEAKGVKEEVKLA
UniProt Q92993: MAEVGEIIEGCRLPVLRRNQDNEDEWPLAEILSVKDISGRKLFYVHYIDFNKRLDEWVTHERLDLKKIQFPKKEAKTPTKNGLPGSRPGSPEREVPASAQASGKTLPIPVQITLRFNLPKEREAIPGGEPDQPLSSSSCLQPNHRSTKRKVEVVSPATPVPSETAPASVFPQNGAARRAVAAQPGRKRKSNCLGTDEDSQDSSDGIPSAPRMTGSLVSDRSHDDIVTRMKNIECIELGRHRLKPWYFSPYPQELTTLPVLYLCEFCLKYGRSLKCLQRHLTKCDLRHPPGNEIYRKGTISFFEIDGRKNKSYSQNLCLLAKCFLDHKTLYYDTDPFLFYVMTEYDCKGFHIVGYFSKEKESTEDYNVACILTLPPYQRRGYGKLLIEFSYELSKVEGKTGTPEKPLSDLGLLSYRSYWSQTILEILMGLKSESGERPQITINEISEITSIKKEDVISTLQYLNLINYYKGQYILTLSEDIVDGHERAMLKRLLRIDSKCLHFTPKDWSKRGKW

T1: Flag-UHRF2 (full-length UHRF2) (UniProt Q96PU4)
T1 sequence: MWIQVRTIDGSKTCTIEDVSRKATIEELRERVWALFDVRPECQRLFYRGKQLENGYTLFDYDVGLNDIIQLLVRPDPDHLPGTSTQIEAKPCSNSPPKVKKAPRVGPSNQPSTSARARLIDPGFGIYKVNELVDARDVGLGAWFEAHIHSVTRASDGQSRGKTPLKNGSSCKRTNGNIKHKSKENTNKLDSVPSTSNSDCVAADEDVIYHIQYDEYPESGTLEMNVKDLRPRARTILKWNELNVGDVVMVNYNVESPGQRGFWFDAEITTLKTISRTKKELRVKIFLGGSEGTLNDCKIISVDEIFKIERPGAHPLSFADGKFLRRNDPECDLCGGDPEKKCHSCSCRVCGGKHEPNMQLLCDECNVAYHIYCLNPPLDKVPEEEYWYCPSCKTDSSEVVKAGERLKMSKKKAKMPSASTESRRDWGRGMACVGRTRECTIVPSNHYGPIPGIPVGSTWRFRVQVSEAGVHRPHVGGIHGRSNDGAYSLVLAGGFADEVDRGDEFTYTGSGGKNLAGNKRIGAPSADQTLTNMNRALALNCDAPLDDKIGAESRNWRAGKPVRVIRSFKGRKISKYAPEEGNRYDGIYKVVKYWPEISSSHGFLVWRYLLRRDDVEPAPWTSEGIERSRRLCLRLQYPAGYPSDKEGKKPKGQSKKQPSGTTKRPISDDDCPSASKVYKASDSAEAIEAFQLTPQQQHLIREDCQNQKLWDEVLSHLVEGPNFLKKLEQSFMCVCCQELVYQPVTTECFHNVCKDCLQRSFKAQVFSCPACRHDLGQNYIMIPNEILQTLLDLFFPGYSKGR

B1: Flag-UHRF2 (full-length UHRF2) (protein, UniProt Q96PU4 1-802)
chain: T1 sequence

Assays:
[1] = molecular target: T1, Flag-UHRF2 (full-length UHRF2); test: co-IP; HEK293 cells 48 h after transfection, NP40 lysis buffer; whole cell extracts immunoprecipitated overnight at 4°C with anti-Flag antibodies, Western blot
[2] = molecular target: HDAC1 (human (endogenous in HEK293)) (UniProt Q13547); test: co-IP; reciprocal: HEK293 cells transfected with the indicated plasmids, NP40 lysis buffer; lysates subjected to HDAC1 immunoprecipitation overnight at 4°C, Western blot
[3] = molecular target: TIP60 (human (endogenous in HEK293)) (UniProt Q92993); test: co-IP; reciprocal: HEK293 cells transfected with plasmids as shown, NP40 lysis buffer; lysates immunoprecipitated overnight at 4°C with anti-TIP60 antibodies, Western blot

Molecule	binding [1]	binding [2]	binding [3]
HDAC1 (from UniProt Q13547 1-482)	binds		
TIP60 (from UniProt Q92993 1-513)	binds		
B1		binds	binds
